The source of these data is paper PMC12001206, “Characterization of multiple binding sites on microtubule associated protein 2c recognized by dimeric and monomeric 14‐3‐3ζ” (The Febs Journal, 2025).

Chains of the proteins cited; added tags and fusions are not shown. Lines headed by an entry give the natural chain unless they say otherwise; changes in a name come on top. A line that says so, or that is headed by a name, gives the form on record, which may keep a tag or linker.
MAP2c phosphorylated selectively by PKA at Ser435 (P15146, form named): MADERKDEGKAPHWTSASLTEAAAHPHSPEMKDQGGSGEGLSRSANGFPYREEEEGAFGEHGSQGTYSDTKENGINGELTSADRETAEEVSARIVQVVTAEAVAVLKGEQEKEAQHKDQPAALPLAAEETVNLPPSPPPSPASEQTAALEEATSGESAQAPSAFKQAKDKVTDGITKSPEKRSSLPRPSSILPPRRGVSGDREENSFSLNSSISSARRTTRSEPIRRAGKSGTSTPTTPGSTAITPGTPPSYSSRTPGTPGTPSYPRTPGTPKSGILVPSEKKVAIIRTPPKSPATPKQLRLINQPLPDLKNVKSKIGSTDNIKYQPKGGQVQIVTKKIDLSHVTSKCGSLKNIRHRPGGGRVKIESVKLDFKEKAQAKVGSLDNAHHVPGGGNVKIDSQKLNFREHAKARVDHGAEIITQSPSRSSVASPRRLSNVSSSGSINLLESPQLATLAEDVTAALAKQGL

The target in the experiment is MAP2c phosphorylated selectively by PKA at Ser435 (rat) (UniProt P15146). In words: NMR titration; 3D HNCO peak broadening; 100 μM 15N,13C-MAP2c sample with up to 200 μM 14-3-3ζ (monomer concentration); 27 °C; 50 mM MOPS, 100 mM NaCl, 0.5 mM TCEP; both purified.

These are yes or no findings as the source states them, for the method shown. Some binding calls cover weakened binding; strength is not graded here.

B1: dimeric pseudo wild‐type 14‐3‐3ζ (14‐3‐3ζ C25A/C189A) (natural protein)
chain: SVDMDKNELVQKAKLAEQAERYDDMAAAMKSVTEQGAELSNEERNLLSVAYKNVVGARRSSWRVVSSIEQKTEGAEKKQQMAREYREKIETELRDICNDVLSLLEKFLIPNASQAESKVFYLKMKGDYYRYLAEVAAGDDKKGIVDQSQQAYQEAFEISKKEMQPTHPIRLGLALNFSVFYYEILNSPEKAASLAKTAFDEAIAELDTLSEESYKDSTLIMQLLRDNLTLWTSDTQGDEAEAGEGGEN
notes: additional residues at the N-terminus; 14-3-3ζ, residues 1-245, UniProt P63104; C25A and C189A count on P63104; The results speak of '230 residues examined' in the crystals, the methods of residues 1-245 plus SVD; also called d14‐3‐3ζ; dimeric 14‐3‐3ζ
B1: the binding entry is on record as “binds”.
